# Results: the supplement of paper PMC5407854, “Inhibitor of ppGalNAc-T3-mediated O-glycosylation blocks cancer cell invasiveness and lowers FGF23 levels” (eLife, 2017)
# In all, about 1,700 compounds were measured (“T3 sensor activation Q score (MG/GFP ratio z-score vs DMSO controls)”: median about 0.25, highest 2% from about 1.9 on). Some of the results follow.
# Tested on: ppGalNAc-T3 sensor
# Test: T3 sensor activation Q score (MG/GFP ratio z-score vs DMSO controls) (SD units); higher = more sensor activation (inhibition of ppGalNAc-T3 glycosylation)
# Details: HEK293 sensor cells; 10 µM; 6 h
# Method: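 Cells were treated with compound at 10 uM for 6 h, then MG/GFP ratio was read by flow cytometry (10,000 cells per well, duplicate wells). Q = (R - R_neg)/SD_neg relative to DMSO vehicle controls; the signal rises when the glycosyltransferase is inhibited.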
row,Compound,T3 sensor activation Q score
1,CCn1c2ccccc2c2cc(NC(=O)Nc3ccc([N+](=O)[O-])cc3C)ccc21,-0.65
2,Nc1ncnc(N2CCOCC2)n1,0.45
3,Nc1cc(=O)[nH]c2ncnn12,-0.15
4,O=C1CCC(NC(=O)c2ccccc2)C(=O)N1 (centres undefined),-0.05
5,N#C/C(=C\c1c[nH]c2ccccc12)C(N)=O,1.4
6,CCOC(=O)/C(C#N)=C1\SS/C(=C(/C#N)C(=O)OCC)S1,0.55
7,Nc1ccc(NC(=O)Nc2ccc(N)cc2)cc1,-0.15
8,O=C(Nc1cccc2ccccc12)c1ccccc1,-0.45
9,CSc1nc(N)c(C(=O)Nc2ccc([N+](=O)[O-])cc2)s1,1.45
10,O=C1COc2c1ccc(O)c2O,0.8
11,CN(C)c1nc(=Nc2cccc(Cl)c2)ss1,0.4
12,Nc1ncncc1-c1ccc2ccccc2c1,0.45
13,CN(C)c1ncnc2c1ncn2-c1ccccc1,-0.6
14,CC(=O)Oc1ccc(OC(C)=O)c2c1CC1(C)OC1(C)C2 (centres undefined),1.55
15,Cc1[nH]c(=S)[nH]c(=O)c1Cc1c(O)ccc2ccccc12,0.25
16,CCN1CCCCC(=NO)C(=NO)CCCC1,0.8
17,NC(=O)N/N=C1\CC2CC1C1C=CCC21 (centres undefined),0.75
18,COc1cc(NC(=O)CCl)ccc(=O)c1,1.75
19,O=C(OCC(O)COC(=O)c1cccnc1)c1cccnc1,0.25
20,O=C(O)c1ccccc1-c1ccccc1C(=O)Nc1ccc2c(c1)[nH]c(=O)c1ccccc12,-0.3
21,NC(N)=N/N=C\c1c(Cl)cccc1Cl,-1
22,c1ccc(-c2nc(-c3nccc4ccccc34)oc2-c2ccccc2)cc1,0.35
23,CCOC(=O)C(=O)C1C(=O)Nc2ccccc21 (centres undefined),1.65
24,CC(C)C[C@H](NC(=O)[C@H](CCc1ccccc1)NC(=O)CN1CCOCC1)C(=O)N[C@@H](Cc1ccccc1)C(=O)N[C@@H](CC(C)C)C(=O)[C@@]1(C)CO1,-0.4
25,O=[N+]([O-])c1ccccc1/C=C/C=N/N=C/c1ccccc1O,0.9
26,O=C(O)C(Cc1ccccc1N(CCO)CCO)N1C(=O)c2ccccc2C1=O (centres undefined),-0.35
27,O=[N+]([O-])c1cccc(-c2nc3ccccc3s/c2=N/O)c1,1.3

row,Compound,T3 sensor activation Q score
1,O=C(O)c1c[nH]n2c(=S)ncnc12,-1.05
2,Nc1ccc(Oc2ccc(N)c([N+](=O)[O-])c2)cc1[N+](=O)[O-],1.15
3,Cc1ccc(NC(=S)NC(=O)c2ccccc2)cc1NC(=S)NC(=O)c1ccccc1,-0.35
4,O=C(c1cccnc1)C1Cc2ccccc2C1=O (centres undefined),1.6
5,Nc1ccc(N=Nc2ccccc2)c2ccccc12,-1.25
6,Cc1nc(N)nc(Nc2ccc(C#N)cc2)c1Br,-0.95
7,CN(C)S(=O)(=O)N1C(=O)c2ccccc2C1=O,0.9
8,CCCCN1C(=O)CC(C(=O)OCC)=C1C,-1.5
9,CCN(CC)Cc1cc2[nH]c3c4ccc(Cl)cc4ncc3c2cc1OC,1.9
10,O=C1c2ccccc2C(=O)N1c1ncn[nH]1,-1.75
11,CSc1ccc(NC(=O)Nc2cc(C)ccn2)cc1,-1.2
12,Cc1cc(NC(=O)Nc2cccc3ccccc23)no1,-0.6
13,CCOC(=O)Nc1csnn1,-0.7
14,O=C(Nc1ccc(Nc2ccncc2)cc1)c1ccc([N+](=O)[O-])cc1,0.75
15,Cc1cc(=O)c2cc(C(=O)c3ccccc3)ccc2[nH]1,0.05
16,COc1ccc(NC2=CC(=S)NC(C)(C)C2)cc1,1
17,COc1ccc(Nc2cc(Cl)ccc2C(=O)O)cn1,1.4
18,COc1cc(NC(C)=O)c2ncccc2c1NC(C)=O,1.2
19,CCOC(=O)c1ccc2c(c1)NCc1cccc(OC)c1O2,1.15
20,COc1cc(OC)c2c(=O)cc(-c3cccnc3)oc2c1,1.35
21,Cc1nc(SCC(=O)O)n[nH]1,-0.95
22,CCN(CC)CCNC(=O)c1ccc(NCN2C(=O)NC(c3ccccc3)(c3ccccc3)C2=O)cc1,0.9
23,Cn1c(=O)c2c(nc(N3CCOCC3)n2C)n(C)c1=O,1
24,C=CC1CN2CCC1CC2C(O)c1ccnc2ccc(OC)cc12 (centres undefined),0.15
25,Cc1ccc(C)c(-n2c(-c3ccc(Br)cc3)csc2=NC(=O)c2ccccc2F)c1,-0.1
26,O=C(C=C=Nc1ccccc1)C(=O)N=C=Cc1ccccc1,-2.1
27,O=C(Nc1ccc(F)cc1)OCCOc1ccc([N+](=O)[O-])cc1,0.95

# Taken from the results shown, 22 compounds:
row,Compound,T3 sensor activation Q score
5,Nc1ccc(N=Nc2ccccc2)c2ccccc12,-1.25
6,Cc1nc(N)nc(Nc2ccc(C#N)cc2)c1Br,-0.95
7,CN(C)S(=O)(=O)N1C(=O)c2ccccc2C1=O,0.9
8,CCCCN1C(=O)CC(C(=O)OCC)=C1C,-1.5
9,CCN(CC)Cc1cc2[nH]c3c4ccc(Cl)cc4ncc3c2cc1OC,1.9
10,O=C1c2ccccc2C(=O)N1c1ncn[nH]1,-1.75
11,CSc1ccc(NC(=O)Nc2cc(C)ccn2)cc1,-1.2
12,Cc1cc(NC(=O)Nc2cccc3ccccc23)no1,-0.6
13,CCOC(=O)Nc1csnn1,-0.7
14,O=C(Nc1ccc(Nc2ccncc2)cc1)c1ccc([N+](=O)[O-])cc1,0.75
15,Cc1cc(=O)c2cc(C(=O)c3ccccc3)ccc2[nH]1,0.05
16,COc1ccc(NC2=CC(=S)NC(C)(C)C2)cc1,1
17,COc1ccc(Nc2cc(Cl)ccc2C(=O)O)cn1,1.4
18,COc1cc(NC(C)=O)c2ncccc2c1NC(C)=O,1.2
19,CCOC(=O)c1ccc2c(c1)NCc1cccc(OC)c1O2,1.15
20,COc1cc(OC)c2c(=O)cc(-c3cccnc3)oc2c1,1.35
21,Cc1nc(SCC(=O)O)n[nH]1,-0.95
22,CCN(CC)CCNC(=O)c1ccc(NCN2C(=O)NC(c3ccccc3)(c3ccccc3)C2=O)cc1,0.9
23,Cn1c(=O)c2c(nc(N3CCOCC3)n2C)n(C)c1=O,1
24,C=CC1CN2CCC1CC2C(O)c1ccnc2ccc(OC)cc12 (centres undefined),0.15
25,Cc1ccc(C)c(-n2c(-c3ccc(Br)cc3)csc2=NC(=O)c2ccccc2F)c1,-0.1
26,O=C(C=C=Nc1ccccc1)C(=O)N=C=Cc1ccccc1,-2.1

# (next part)

row,Compound,T3 sensor activation Q score
1,COc1ccc(NC2=NC(C)(CO)CS2)cc1 (centres undefined),0.85
2,CN1CCC(=C(c2ccc(Cl)cc2)c2ccccn2)CC1,-0.25
3,Cc1nn(-c2ccccc2)nc1C(=O)Nc1ccc2[nH]ncc2c1,1.35
4,Cc1ccc(N=Nc2ccc(C)cc2NC(=O)Nc2ccccc2F)cc1,1.3
5,CN(C)c1ccc(/C=N\NC(=O)c2cnc3ccccc3c2)cc1,0.8
6,CCNc1ccccc1C(=O)O,0.05
7,CC(C)(C)c1ccc(NS(=O)(=O)c2ccc(N)cc2)cc1,-0.15
8,CC(C)(C)c1ccc(C(=O)N2CCOC23CCCCC3)cc1,1.85
9,NC(=O)CCC(C(=O)O)N1C(=O)c2ccc(O)cc2C1=O (centres undefined),-0.1
10,C/C(=N/O)[C@H]1CC[C@H]2[C@@H]3CC[C@@H]4C/C(=N\O)CC[C@]4(C)[C@H]3[C@@](C)(O)C[C@]12C,-1.3
11,C=C1SC(=Nc2c(C)cccc2Cl)N(C(=O)c2sc3ccccc3c2Cl)C12CCCCC2,0.8
12,COc1ccc(OCC(O)CN2CCN(c3ccc(Cl)cc3)CC2)cc1 (centres undefined),-1.55
13,Cc1ccc(S(=O)(=O)CCOC(=O)CNC(=O)OCc2ccccc2)cc1,0.85
14,CCOC(=O)C(=CNc1ccccc1Cl)C(=O)OCC,0.65
15,Cc1nc2ccc(N)nc2nc1C,1
16,Nc1nc(Cl)nc2c1ncn2[C@@H]1O[C@H](CO)[C@@H](O)[C@@H]1F,0.75
17,Cc1ccc(C)c(C(=O)CCC(=O)O)c1,0.85
18,O=C1c2ccccc2C(=Cc2cccnc2)c2ccccc21,0.75
19,CSc1nc(=S)cc(C)[nH]1,-0.15
20,O=C(Nc1ccc(Nc2ccncc2)cc1)c1ccc(Nc2ccnc3ccc([N+](=O)[O-])cc23)cc1,9.85
21,Cc1ccccc1NC(=S)Nc1ccccn1,-0.2
22,COc1c(NC=O)c2c(c([N+](=O)[O-])c1OC)C(=O)OC2,0.95
23,O=S1(=O)CSCS(=O)(=O)C1,-0.85
24,CC(C)(C)N1CC(OC(N)=O)C1,1.65
25,c1ccc2c(c1)[nH]c1c3ccccc3sc21,-0.95
